# Results of single-concentration screens

Amino acid sequences for entries named in this document (tags omitted). Residues count along the entry.
UniProt Q8IDJ8, 1-583: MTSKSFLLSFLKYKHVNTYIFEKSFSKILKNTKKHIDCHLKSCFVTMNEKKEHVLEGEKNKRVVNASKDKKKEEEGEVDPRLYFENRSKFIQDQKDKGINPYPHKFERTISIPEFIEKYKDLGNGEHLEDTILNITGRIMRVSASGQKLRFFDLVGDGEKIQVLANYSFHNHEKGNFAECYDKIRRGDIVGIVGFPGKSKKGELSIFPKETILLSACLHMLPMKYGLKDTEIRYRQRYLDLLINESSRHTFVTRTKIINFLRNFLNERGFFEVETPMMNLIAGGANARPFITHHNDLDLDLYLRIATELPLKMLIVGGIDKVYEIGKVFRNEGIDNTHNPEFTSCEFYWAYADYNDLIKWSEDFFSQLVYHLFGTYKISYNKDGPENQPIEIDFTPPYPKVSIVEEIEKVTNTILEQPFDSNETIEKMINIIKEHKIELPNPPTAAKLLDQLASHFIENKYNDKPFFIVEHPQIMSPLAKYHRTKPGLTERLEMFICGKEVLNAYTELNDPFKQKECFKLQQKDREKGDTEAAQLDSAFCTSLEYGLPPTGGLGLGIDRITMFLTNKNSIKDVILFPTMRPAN
UniProt P9WPC5, whole entry: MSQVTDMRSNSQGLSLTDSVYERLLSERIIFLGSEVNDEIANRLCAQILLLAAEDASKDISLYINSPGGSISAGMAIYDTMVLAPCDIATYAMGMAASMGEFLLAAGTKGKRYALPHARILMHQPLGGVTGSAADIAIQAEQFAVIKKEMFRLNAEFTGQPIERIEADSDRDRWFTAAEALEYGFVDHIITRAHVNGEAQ
UniProt P9WPC3, whole entry partner: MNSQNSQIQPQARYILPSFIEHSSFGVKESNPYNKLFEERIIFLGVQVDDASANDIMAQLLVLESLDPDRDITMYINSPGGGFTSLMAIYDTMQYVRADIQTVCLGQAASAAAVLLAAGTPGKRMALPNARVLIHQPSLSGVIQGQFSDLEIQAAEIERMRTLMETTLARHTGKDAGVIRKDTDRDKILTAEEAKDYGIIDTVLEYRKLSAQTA
UniProt P9WFT3, whole entry: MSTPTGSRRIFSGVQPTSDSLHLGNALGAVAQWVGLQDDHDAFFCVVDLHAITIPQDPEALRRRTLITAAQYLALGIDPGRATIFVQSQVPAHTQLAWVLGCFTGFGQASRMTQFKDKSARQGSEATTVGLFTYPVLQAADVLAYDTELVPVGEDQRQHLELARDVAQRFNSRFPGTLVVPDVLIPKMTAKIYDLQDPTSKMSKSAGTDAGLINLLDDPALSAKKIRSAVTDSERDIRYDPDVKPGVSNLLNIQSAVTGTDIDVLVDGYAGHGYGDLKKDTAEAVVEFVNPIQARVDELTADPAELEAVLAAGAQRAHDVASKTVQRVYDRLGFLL

The values are deposited in ChEMBL (CHEMBL3988442, “University of Dundee, Small-Polar-MMV Screening Library” (2021)).

Results are given as percent effect. How 0% and 100% were set is not recorded. Most values in the screen are low, and negative values occur. Compounds were drawn at random from those tested, without regard to their results.

PfKRS1: 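Lysine-tRNA ligase, Plasmodium falciparum 3D7 (UniProt Q8IDJ8). Enzyme assay of the cytosolic lysyl-tRNA synthetase in 384-well plates, read by luminescence. Compounds at 30 µM. Direction is inferred from only a few compounds that gave an IC50; most scored high, so higher reads as stronger inhibition. About 69,000 compounds were tested under these conditions; 0.071% (about 49) showed 50% or more at least once.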
ClpP1P2: 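Protease assay of ClpP1P2, read by the AMC dye that it sets free. Target: ClpP1P2, Mycobacterium tuberculosis (UniProt P9WPC5 and UniProt P9WPC3). Concentration: 50 µM. Higher reads as stronger inhibition, judged from the few compounds that gave an IC50. Most other retested compounds had strongly negative values. Of about 69,000 compounds tested this way, about 10 (0.015%) reached 50% or more in at least one test.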
MtTrpRS: 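Enzyme assay of tryptophanyl-tRNA synthetase; the read-out is not stated. Target: Tryptophan-tRNA ligase, Mycobacterium tuberculosis (UniProt P9WFT3). Concentration: 10 µM. Direction is not recorded; retested compounds ran higher, which suggests that high means inhibition. Size under these conditions: about 65,000 compounds, about 64 of them at 50% or above in at least one test.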

With CC(C)SCCn1ccc2[nH]c(=O)c(C#N)cc2c1=O the screen gave PfKRS1: 48.46%; ClpP1P2: -12.97%; MtTrpRS: -3.722%. For COCCn1c(-c2cccc(OC)c2)cnc1NC(=O)NCC(C)C the result was PfKRS1: 5.56%; ClpP1P2: -16.06%; MtTrpRS: 1.704%. With Cc1ccc(CC(=O)N(C)CC2(O)CCN(c3ccccn3)C2)s1 (centres unmarked) the screen gave PfKRS1: 1.447%; ClpP1P2: -0.112%; MtTrpRS: -3.094%. CN1C[C@H]2CCN(C(=O)NC3CCCC3)CC[C@H]2S1(=O)=O read PfKRS1: 2.181%; ClpP1P2: -5.926%; MtTrpRS: 5.025%. CCOCC1CCN(C(=O)Nc2ccc(-c3csnn3)cc2)C1 (centres unmarked) gave PfKRS1: -0.7127%; ClpP1P2: -13.16%; MtTrpRS: -0.000005%. With O=C1NCC(C(=O)Nc2ncc(Cc3cccc(F)c3)s2)N1 (centres unmarked) the screen gave PfKRS1: 1.033%; ClpP1P2: -20.62%; MtTrpRS: -3.739%.

O=C(C[C@@H]1COC[C@H]2CN(Cc3ccncc3)C[C@@H]12)N1CCOCC1 read PfKRS1: 6.519%; ClpP1P2: 9.304%; MtTrpRS: 1.005%. Result for CC1(C(=O)N2CCOCC2)CN(CC2CCOCC2)CCO1 (centres unmarked) was PfKRS1: 2.25%; ClpP1P2: -17.82%; MtTrpRS: 0%. For CC(C)N1CCO[C@H]2CN(C(=O)c3ccsc3)C[C@H]21 the result was PfKRS1: -2.24%; ClpP1P2: 3.847%; MtTrpRS: 3.591%. O=C(NCc1ccc(CN2CCCC2)cc1)NC1(CO)CCCC1 read PfKRS1: -7.976%; ClpP1P2: -8.556%; MtTrpRS: 24.78%. Result for O=C(Cc1cccs1)NCC1Cn2nnc(-c3ccoc3)c2CO1 (centres unmarked) was PfKRS1: 13.32%; ClpP1P2: 12%; MtTrpRS: 0.5394%. For Cc1ccc(CNC(=O)C2CCCCN2C(=O)OC(C)(C)C)cn1 (centres unmarked) the result was PfKRS1: -3.027%; ClpP1P2: -1.451%; MtTrpRS: 3.97%.

CCc1nnc(CN(C)Cc2cccc(C(=O)Nc3ccnn3C)c2)o1 gave PfKRS1: 4.884%; ClpP1P2: -3.066%; MtTrpRS: -1.043%. COCc1noc(-c2ccc(N3CCCCC3CO)nc2)n1 (centres unmarked) gave PfKRS1: -4.422%; ClpP1P2: -32.62%; MtTrpRS: -15.46%. Cc1cc(C)cc(NCCC(=O)NC2CCCCC2)c1 read PfKRS1: 1.304%; ClpP1P2: 3.331%; MtTrpRS: 0.7282%. COCC(=O)N1CCCCC1c1ccncn1 (centres unmarked) read PfKRS1: -1.088%; ClpP1P2: 3.683%. O=C(COC1CCCC1)NC(C(=O)Nc1cc[nH]n1)c1ccccc1 (centres unmarked) read PfKRS1: 7.373%; ClpP1P2: -2.614%; MtTrpRS: 2.913%. For NC(=O)NCC1CCCCN1C(=O)c1ccc(Cl)s1 (centres unmarked) the result was PfKRS1: 3.227%; ClpP1P2: 0.7327%; MtTrpRS: -2.874%.

For CN(Cc1ccco1)C[C@H]1OC[C@@H]2CCN(Cc3nccs3)C[C@@H]21 the result was PfKRS1: 1.4%; ClpP1P2: -2.347%; MtTrpRS: -5.352%. Result for O=C(CC1CCCC1)N1CCC(c2noc(-c3ccccn3)n2)CC1 was PfKRS1: 6.043%; ClpP1P2: 5.815%; MtTrpRS: -3.562%. CC(C)Cc1noc(CNc2ccccc2CC(=O)N(C)C)n1 gave PfKRS1: -0.7487%; ClpP1P2: -2.139%; MtTrpRS: -2.096%. NC(=O)CCn1ccc(NC(=O)C2(c3ccc(F)cc3)CCC2)n1 gave PfKRS1: 5.339%; ClpP1P2: -6.76%; MtTrpRS: -6.343%. Result for Cc1cc(F)cc(S(=O)(=O)Nc2noc(C)n2)c1 was PfKRS1: 8.79%; ClpP1P2: -1.846%; MtTrpRS: 0.2863%. With CN1CCCCC1c1ncc2c(n1)CCN(Cc1ccccc1Cl)C2 (centres unmarked) the screen gave PfKRS1: 3.849%; ClpP1P2: -8.356%; MtTrpRS: 0.1762%.

Cc1ccc(CN(CCN(C)C)C(=O)Cc2cn3ccccc3n2)o1 gave PfKRS1: 0.06833%; ClpP1P2: -9.599%; MtTrpRS: -1.882%.